These results are taken from paper PMC8292509.

The chains behind the UniProt entries cited, without tags or fusion partners.
UniProt A5A3E0: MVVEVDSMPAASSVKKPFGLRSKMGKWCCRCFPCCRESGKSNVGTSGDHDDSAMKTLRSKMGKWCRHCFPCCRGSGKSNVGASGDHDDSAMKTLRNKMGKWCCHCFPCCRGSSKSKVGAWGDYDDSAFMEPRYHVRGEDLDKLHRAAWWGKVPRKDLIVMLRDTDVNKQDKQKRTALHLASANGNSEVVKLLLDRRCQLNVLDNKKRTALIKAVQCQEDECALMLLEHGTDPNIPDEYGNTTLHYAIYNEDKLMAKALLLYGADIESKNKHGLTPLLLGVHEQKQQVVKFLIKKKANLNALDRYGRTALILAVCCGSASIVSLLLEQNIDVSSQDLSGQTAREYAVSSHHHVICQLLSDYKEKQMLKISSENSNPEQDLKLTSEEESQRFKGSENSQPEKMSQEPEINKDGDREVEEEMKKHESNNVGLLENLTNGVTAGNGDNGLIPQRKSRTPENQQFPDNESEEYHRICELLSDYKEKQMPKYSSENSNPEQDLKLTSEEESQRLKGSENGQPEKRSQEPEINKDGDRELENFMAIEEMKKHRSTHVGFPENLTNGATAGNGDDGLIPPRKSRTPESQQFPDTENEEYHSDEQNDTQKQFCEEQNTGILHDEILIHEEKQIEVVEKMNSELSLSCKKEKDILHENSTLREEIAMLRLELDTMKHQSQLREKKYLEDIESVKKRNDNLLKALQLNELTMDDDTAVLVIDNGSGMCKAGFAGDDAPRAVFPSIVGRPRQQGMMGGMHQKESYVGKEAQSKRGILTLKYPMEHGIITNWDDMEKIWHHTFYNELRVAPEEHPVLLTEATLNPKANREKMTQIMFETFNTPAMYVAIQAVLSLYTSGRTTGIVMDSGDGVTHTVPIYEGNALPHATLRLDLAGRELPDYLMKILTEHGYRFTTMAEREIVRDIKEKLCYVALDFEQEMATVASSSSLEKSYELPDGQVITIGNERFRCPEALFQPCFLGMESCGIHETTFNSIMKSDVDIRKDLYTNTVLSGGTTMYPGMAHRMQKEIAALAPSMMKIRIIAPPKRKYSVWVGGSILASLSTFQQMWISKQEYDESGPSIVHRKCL
UniProt P50990: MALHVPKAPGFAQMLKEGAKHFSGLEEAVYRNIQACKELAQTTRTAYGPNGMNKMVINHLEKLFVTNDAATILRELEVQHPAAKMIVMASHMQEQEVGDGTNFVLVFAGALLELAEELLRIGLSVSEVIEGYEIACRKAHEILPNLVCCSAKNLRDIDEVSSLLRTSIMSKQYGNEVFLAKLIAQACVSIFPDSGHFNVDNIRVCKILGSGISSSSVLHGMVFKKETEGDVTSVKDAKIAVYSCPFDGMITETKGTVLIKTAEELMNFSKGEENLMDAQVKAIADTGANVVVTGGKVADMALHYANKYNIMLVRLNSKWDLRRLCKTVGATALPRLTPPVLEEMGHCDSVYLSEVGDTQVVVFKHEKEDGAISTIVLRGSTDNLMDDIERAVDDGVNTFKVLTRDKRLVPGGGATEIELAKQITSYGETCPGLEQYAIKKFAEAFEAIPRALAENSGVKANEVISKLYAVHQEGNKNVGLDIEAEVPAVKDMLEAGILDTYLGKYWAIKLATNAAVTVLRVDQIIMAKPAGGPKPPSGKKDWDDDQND

For the test, the target named is POTE ankyrin domain family member F (POTEF) tagged with DDDDK, drug-inducible in HGrC1 cells (human) (UniProt A5A3E0). Kind of test: co-IP; lysate of CuO-POTEF-Flag HGrC1 cells cultured 2 days with cumate; IP with the DDDDK-tagged Protein Magnetic Purification Kit (anti-DDDDK); western blot with anti-TCP-1α and anti-TCP-1θ. Background: Immunoblotting shows a protein as a band on a membrane.

No constants are given. Whether binding was seen depends on the method and setting. In cells and extracts the contact can be indirect. Some binding calls cover weakened binding; strength is not graded here.

As for “TCP-1θ, a subunit of chaperonin containing TCP-1 complex (CCT) (from UniProt P50990 1-548)”, the binding result is “binds”.
